Test results published in publication PMC7477767.
These are yes or no findings as the source states them, for the method shown. In cells and extracts the contact can be indirect. Some results given as binding are weak or reduced against the parent protein; the word gives no strength. For some assays here: Sequences can lack the tags named with a protein.

The chains behind the UniProt entries cited, without tags or fusion partners.
UniProt P35579: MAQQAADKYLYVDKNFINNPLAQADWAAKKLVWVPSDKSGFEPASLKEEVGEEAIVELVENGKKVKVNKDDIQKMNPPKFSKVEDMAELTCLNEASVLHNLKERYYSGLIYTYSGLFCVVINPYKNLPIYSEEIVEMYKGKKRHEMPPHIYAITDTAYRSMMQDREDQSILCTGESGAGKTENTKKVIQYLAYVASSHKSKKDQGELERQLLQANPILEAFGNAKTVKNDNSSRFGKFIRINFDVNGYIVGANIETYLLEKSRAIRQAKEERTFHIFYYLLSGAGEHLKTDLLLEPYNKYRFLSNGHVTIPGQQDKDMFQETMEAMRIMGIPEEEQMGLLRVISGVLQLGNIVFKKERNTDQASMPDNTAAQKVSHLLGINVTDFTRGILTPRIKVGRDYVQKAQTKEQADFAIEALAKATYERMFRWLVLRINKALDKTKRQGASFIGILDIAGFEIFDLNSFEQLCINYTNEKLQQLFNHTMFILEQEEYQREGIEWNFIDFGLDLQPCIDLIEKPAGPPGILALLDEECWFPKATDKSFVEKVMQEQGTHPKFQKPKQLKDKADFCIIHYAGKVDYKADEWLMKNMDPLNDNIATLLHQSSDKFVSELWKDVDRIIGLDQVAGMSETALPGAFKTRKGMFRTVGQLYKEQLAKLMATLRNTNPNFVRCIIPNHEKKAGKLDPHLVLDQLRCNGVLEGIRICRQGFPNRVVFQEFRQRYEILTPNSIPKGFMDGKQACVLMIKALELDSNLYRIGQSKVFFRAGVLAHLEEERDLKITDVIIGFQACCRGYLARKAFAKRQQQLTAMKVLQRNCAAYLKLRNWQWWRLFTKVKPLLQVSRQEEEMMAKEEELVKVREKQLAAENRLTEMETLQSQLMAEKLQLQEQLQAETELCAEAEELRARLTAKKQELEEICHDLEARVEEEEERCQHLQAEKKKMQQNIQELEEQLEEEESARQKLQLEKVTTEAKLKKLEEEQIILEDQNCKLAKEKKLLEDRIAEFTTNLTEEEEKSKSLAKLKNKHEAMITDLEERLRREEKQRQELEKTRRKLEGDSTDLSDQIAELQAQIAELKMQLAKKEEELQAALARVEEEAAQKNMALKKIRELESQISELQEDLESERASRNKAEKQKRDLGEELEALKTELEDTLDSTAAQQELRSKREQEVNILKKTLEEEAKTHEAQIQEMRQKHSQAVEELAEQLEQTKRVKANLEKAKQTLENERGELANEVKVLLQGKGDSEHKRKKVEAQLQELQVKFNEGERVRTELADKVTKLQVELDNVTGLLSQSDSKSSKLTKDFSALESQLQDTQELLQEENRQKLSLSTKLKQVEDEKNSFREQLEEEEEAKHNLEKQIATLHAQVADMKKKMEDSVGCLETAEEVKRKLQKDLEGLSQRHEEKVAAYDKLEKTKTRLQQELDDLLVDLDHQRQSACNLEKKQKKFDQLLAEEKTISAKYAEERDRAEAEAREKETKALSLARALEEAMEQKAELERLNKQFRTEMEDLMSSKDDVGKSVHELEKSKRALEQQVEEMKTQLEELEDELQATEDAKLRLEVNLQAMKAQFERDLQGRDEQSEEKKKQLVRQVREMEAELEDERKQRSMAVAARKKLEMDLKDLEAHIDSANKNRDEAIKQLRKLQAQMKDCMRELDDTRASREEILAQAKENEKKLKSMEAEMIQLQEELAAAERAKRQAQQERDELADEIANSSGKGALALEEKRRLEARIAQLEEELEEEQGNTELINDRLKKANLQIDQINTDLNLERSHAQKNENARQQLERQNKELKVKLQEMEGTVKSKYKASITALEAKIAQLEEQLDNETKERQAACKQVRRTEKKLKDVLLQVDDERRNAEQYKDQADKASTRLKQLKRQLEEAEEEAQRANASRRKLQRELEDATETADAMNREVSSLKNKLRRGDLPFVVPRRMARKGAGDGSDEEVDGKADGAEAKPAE

Experiments:
[1] = biological target: T1, FLAG-tagged CRLF1 (Cytokine Receptor-Like Factor 1) (UniProt O75462); assay: co-IP; exogenous FLAG-CRLF1 and His-MYH9 in IHH4 cells; antibodies against FLAG or His, rabbit IgG as control, protein A/G agarose, 4°C; lysis buffer 20 mM Tris-HCl pH 7.5, 150 mM NaCl, 1% Nonidet P-40, 1% sodium deoxycholate; immunoblotting
T1 sequence: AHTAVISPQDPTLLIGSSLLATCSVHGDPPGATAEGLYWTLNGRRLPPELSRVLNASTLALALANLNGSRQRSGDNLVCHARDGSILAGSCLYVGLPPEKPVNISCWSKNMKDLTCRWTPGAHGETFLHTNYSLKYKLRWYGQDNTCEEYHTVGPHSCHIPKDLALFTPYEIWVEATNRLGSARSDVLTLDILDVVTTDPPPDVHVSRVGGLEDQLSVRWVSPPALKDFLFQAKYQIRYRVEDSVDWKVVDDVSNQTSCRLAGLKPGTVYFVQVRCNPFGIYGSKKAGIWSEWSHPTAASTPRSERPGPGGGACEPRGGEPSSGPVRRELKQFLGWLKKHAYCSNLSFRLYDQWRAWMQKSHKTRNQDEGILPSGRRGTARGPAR

[2] = biological target: T2, CRLF1 (Cytokine Receptor-Like Factor 1), endogenous (human (endogenous in BCPAP)) (UniProt O75462); assay: co-IP; endogenous CRLF1 and MYH9 in BCPAP cells; precipitating antibody not told; immunoblotting
T2 sequence: T1 sequence

binding [1]	binding [2]	Substance
binds	–	His-tagged MYH9 (from UniProt P35579 1-1960)
–	binds	MYH9 (non-muscle myosin heavy-chain IIA protein), endogenous (from UniProt P35579 1-1960)
